Out of some 360,000 compounds screened, about 7,500 (2.1%) were called active. Inconclusive results, whose numbers are uncertain, are shown with a selection of clear calls. Calls come from the whole dose curve; as a rule, active = well fitted inhibition curve with a large enough effect; inconclusive = small, poorly fitted or top-dose-only effect, or effect the other way; inactive = flat fitted curve, though single readings scatter. Where the call is inconclusive, the potency comes from a doubtful curve fit. Bridge positions count the residues as written; N and C are the ends. Square brackets hold non-standard residues; d marks the D form. Peptide text beside a SMILES is read from it. * marks the point of attachment. X1 = CCC(C)C(N)C1=NC(C(=O)*)CS1; dOrn = NCCC[C@@H](N)C(=O)O
assay: Nrf2 qHTS screen for inhibitors; conditions: A549 ARE-Fluc reporter, luciferase luminescence, 18-24 h; series mostly up to 46 µM; note: nearly all actives have a fitted effect of over 60% in size
Outline: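 Quantitative HTS in A549 cells stably bearing an antioxidant response element-firefly luciferase construct. Inhibition of Nrf2-driven transcription was scored by luminescence after 18-24 h of compound exposure at 37 °C.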
Potency is the fitted concentration of half-maximal effect.

Row | Compound | Potency
1 | Cc1cccc(Nc2nc(N)nc(CCl)n2)c1 | inactive
2 | O=C(c1ccc2ccccc2c1)N1CCc2ccccc21 | inconclusive: 23.1 µM [activator, single point]
3 | COc1ccc(CCNC(=O)c2n[nH]c(=O)c3ccccc23)cc1 | inconclusive: 20.6 µM [activator, partial curve, poor fit]
4 | CC(C)OP(=O)(c1ccc(N(C)C)cc1)C(O)c1ccccc1F (stereo not given) | inactive
5 | COc1c(C(=O)NNC(=O)c2ccccc2Cl)csc1Br | inconclusive: 9.2 µM [activator, partial curve, poor fit]
6 | Cc1ccc(S(=O)(=O)N2CCCCC2)cc1NC(=S)NC(=O)c1ccco1 | inconclusive: 9.2 µM [falling, partial curve, poor fit]
7 | C/C(=N\N1C(=O)c2ccccc2NC1c1ccco1)c1ccccc1O (stereo not given) | inconclusive: 6.51 µM [activator, single point]
8 | CCN(CC)CCCNC(=S)N(Cc1cccs1)Cc1cc2cc3c(cc2[nH]c1=O)OCCO3 | inconclusive: 5.17 µM [activator, partial curve, poor fit]
9 | COc1cc(S(=O)(=O)NCc2ccncc2)ccc1Br | active: 3.26 µM
10 | c1csc(-c2nc3ccccn3c2Nc2ccc3c(c2)OCCO3)c1 | active: 23.1 µM
11 | Cc1ccccc1C(CC(=O)c1cccs1)C(C#N)C#N (stereo not given) | inconclusive: 20.6 µM [falling, single point]
12 | O=C(O)c1cc(/C=C/c2ccc(N3CCOCC3)cc2)nc2ccccc12 | inconclusive: 20.6 µM [falling, partial curve, poor fit]
13 | CCc1nc(Nc2cccc(OC)c2)c2oc3ccccc3c2n1 | inactive
14 | CC(C)(C)c1ccc(C(=O)N2CCC(=O)N(C(COCc3ccccc3)Cc3ccccc3)CC2)cc1 (stereo not given) | inconclusive: 29.1 µM [falling, single point]
15 | Cc1ccc(SCCC(=O)N/N=C/c2ccccc2O)cc1 | inactive
16 | Cc1cc(=O)c2cc(Cl)ccc2[nH]1 | inconclusive: 20.6 µM [falling, partial curve, poor fit]
17 | CCOC(=O)C1CCCN(C(=S)NC(=O)c2cc(Br)ccc2Cl)C1 (stereo not given) | inconclusive: 23.1 µM [falling, single point]
18 | C=CCn1c(N)c(C(=O)Nc2ccccc2)c2nc3ccccc3nc21 | inconclusive: 14.6 µM [falling, partial curve]
19 | CCN(C[C@H]1N[C@@](CC)(C(=O)OC)[C@H]2C(=O)N(Cc3ccccc3)C(=O)[C@@H]12)S(=O)(=O)c1ccc(C(C)(C)C)cc1 | inconclusive: 29.1 µM [falling, single point]
20 | COc1cccc(-c2c(C(=O)N/N=C/c3sccc3C)nnn2-c2nonc2N)c1 | inconclusive: 29.1 µM [falling, single point]

Row | Compound | Potency
21 | Nc1cc([N+](=O)[O-])ccc1Nc1ccc(O)cc1 | inconclusive: 20.6 µM [falling, single point]
22 | O=C(C1CC(=O)N(c2ccc(Cl)cc2)C1)N1CCC(c2nc3ccccc3[nH]2)CC1 (stereo not given) | inconclusive: 10.3 µM [falling, partial curve]
23 | Cc1ccc(CC2SC(N=C(N)N)=NC2=O)cc1 (stereo not given) | inactive
24 | CO/N=C\CC(=O)Nc1ccc(Oc2ccccc2)cc1 | inconclusive: 9.2 µM [activator, partial curve]
25 | O=C(NCc1ccccn1)c1cc(-c2ccc(Cl)cc2)oc1C(F)(F)F | inconclusive: 29.1 µM [falling, single point]
26 | CC(=O)c1ccc(NC(=S)NCCc2cccc(Cl)c2)cc1 | inactive
27 | O=C(Cc1ccc(NC(=O)N2CCCCc3ccccc32)cc1)Nc1ccccc1Br | inconclusive: 29.1 µM [falling, single point]
28 | Cc1ccc2ncnc(NCc3ccco3)c2c1 | inconclusive: 11.6 µM [falling, partial curve, poor fit]
29 | O=C(NCCc1ccccc1)C(=O)Nc1ccc2c(c1)OCCO2 | inconclusive: 2.06 µM [activator, single point]
30 | Cc1ccc(Cl)cc1NC(=O)c1cc(-c2ccc3c(c2)OCCO3)on1 | inconclusive: 2.91 µM [activator, full curve]
31 | Cc1ccccc1CN1c2ccccc2-c2nc(SCC(=O)Nc3cc(F)ccc3F)ncc2S1(=O)=O | inconclusive: 0.82 µM [activator, full curve, poor fit]
32 | COc1ccc(C(=O)Nc2cc(C)on2)c(OC)c1 | inconclusive: 20.6 µM [activator, partial curve]
33 | COc1ccc(C(=O)C(OC(=O)c2ccccc2Cl)c2ccccc2)cc1 (stereo not given) | inconclusive: 14.6 µM [activator, partial curve]
34 | Cc1ccc(S(=O)(=O)N2CCc3ccccc3CC2)cc1 | active: 8.2 µM
35 | CCCCN(CC)S(=O)(=O)c1ccc(C(=O)Nc2nnc(-c3cccs3)o2)cc1 | active: 2.31 µM
36 | Cc1ccc(-n2ncc(C(=O)NCCCN3CCN(C)CC3)c2C2CCN(C(=O)OC(C)(C)C)CC2)cc1 | inconclusive: 23.1 µM [activator, single point]
37 | CCCC(=O)Nc1nnc(SCC(=O)NCc2cccs2)s1 | inconclusive: 0.0164 µM [falling, full curve]
38 | CCC(C)C(N)C1=NC(C(=O)N[C@@H](CC(C)C)C(=O)N[C@H](CCC(=O)[O-])C(=O)N[C@H](C(=O)N[C@H]2CCCCNC(=O)[C@H](CC(N)=O)NC(=O)[C@@H](CC(=O)[O-])NC(=O)[C@H](Cc3cnc[nH]3)NC(=O)[C@@H](Cc3ccccc3)NC(=O)[C@H]([C@@H](C)CC)NC(=O)[C@@H](CCCN)NC2=O)[C@@H](C)CC)CS1.[Zn+2] (stereo not given in full) (X1-L[dE]IK[dOrn]I[dF]H[dD]N; lactam 4-C) | inconclusive: 1.16 µM [falling, full curve, poor fit]
39 | CCN1C(=O)N/C(=C/c2ccc(Sc3ccc(C)cc3)o2)C1=O | inconclusive: 29.1 µM [falling, single point]
40 | O=C(NCc1ccccc1)c1cc(-c2ccncc2)nc2ccc(S(=O)(=O)N3CCOCC3)cc12 | inconclusive: 18.4 µM [activator, single point]

Three entries from above, sorted by molecular weight, descending:
Row | Compound | Potency
14 | CC(C)(C)c1ccc(C(=O)N2CCC(=O)N(C(COCc3ccccc3)Cc3ccccc3)CC2)cc1 (stereo not given) | inconclusive: 29.1 µM [falling, single point]
11 | Cc1ccccc1C(CC(=O)c1cccs1)C(C#N)C#N (stereo not given) | inconclusive: 20.6 µM [falling, single point]
2 | O=C(c1ccc2ccccc2c1)N1CCc2ccccc21 | inconclusive: 23.1 µM [activator, single point]
